This passage reports binding results from article PMC8783693.

Sequences of proteins named here, by UniProt entry; tags and fusion partners are left off. Residues count along the entry.
UniProt P06733: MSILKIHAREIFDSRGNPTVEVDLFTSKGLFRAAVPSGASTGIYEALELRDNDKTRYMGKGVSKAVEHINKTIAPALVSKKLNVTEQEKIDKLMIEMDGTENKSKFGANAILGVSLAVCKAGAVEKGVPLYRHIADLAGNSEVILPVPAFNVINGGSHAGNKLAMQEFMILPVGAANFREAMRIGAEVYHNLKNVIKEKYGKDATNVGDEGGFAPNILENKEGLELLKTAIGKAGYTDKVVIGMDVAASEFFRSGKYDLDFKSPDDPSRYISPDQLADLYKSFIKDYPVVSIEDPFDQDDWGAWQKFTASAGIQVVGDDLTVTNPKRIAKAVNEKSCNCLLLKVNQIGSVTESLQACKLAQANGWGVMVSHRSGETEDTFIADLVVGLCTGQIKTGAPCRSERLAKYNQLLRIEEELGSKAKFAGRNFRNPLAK
UniProt Q03405, residues 23-305: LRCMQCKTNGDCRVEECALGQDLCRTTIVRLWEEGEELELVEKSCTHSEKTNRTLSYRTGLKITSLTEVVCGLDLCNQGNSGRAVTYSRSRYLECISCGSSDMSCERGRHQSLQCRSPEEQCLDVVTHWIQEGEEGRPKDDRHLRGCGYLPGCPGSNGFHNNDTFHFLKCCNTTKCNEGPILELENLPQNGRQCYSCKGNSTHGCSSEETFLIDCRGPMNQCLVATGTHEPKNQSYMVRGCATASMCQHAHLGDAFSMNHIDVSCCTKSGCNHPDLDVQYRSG

Results are given in words; binding and its absence hold for the method and conditions named. Binding seen in cells or lysates may run through a third protein. Some results given as binding are weak or reduced against the parent protein; the word gives no strength.

This assay addresses enolase-1 (ENO) (human (endogenous in primary human lung fibroblasts)) (UniProt P06733). The assay is described as follows: co-IP; membrane fractions of fibroblasts treated with TGF-β1 with or without peptide E4, incubated overnight at 4°C with anti-ENO-1 antibody or isotype control; precipitated with protein G agarose beads for 1 hour at 4°C; uPAR and ENO detected by immunoblotting.

“urokinase plasminogen activator receptor (uPAR) (from UniProt Q03405 23-305)”: the binding result was “binds”.
